Paper PMC9474880
No constants are given. Whether binding was seen depends on the method and setting. Binding seen in cells or lysates may run through a third protein. Some results given as binding are weak or reduced against the parent protein; the word gives no strength.

Sequences of proteins named here, by UniProt entry; tags and fusion partners are left off.
UniProt Q07820: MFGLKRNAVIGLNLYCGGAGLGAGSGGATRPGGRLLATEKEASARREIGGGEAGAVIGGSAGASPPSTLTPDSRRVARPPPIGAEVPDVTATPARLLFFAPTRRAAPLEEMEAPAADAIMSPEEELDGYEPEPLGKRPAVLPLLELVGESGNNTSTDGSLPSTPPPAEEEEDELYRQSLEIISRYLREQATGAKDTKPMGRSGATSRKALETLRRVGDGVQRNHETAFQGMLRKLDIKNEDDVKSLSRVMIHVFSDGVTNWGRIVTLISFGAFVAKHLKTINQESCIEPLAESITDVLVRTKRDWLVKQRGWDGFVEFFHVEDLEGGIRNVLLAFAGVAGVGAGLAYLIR
UniProt O00429: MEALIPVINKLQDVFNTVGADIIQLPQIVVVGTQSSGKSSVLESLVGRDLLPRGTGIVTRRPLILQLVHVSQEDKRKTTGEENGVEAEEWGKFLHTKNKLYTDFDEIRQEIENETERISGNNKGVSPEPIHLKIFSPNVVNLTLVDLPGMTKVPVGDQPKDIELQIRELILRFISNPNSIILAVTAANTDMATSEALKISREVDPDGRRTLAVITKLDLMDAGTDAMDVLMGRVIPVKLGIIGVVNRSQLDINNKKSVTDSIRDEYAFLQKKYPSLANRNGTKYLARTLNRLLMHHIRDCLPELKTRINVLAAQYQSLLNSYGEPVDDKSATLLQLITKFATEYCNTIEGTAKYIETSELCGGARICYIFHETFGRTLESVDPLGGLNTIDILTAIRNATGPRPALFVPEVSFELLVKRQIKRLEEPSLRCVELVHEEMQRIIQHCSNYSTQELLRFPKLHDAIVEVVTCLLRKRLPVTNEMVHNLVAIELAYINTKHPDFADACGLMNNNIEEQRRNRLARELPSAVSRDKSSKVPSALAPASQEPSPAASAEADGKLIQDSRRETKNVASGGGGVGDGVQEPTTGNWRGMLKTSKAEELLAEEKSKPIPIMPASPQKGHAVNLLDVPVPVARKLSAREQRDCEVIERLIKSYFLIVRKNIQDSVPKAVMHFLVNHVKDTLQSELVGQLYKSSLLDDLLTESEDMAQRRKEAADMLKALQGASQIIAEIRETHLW

Target: MCL-1 (human (endogenous in primary bCAFs)) (UniProt Q07820)
Experiment: co-IP; endogenous MCL-1 immunoprecipitated (anti-MCL-1 antibody, Protein A magnetic beads) from 200 ug of CAF lysate in CHAPS 1%, TRIS-HCl 20 mM pH 7.5, NaCl 150 mM, EDTA 1 mM; western blot for MCL-1, DRP1 or NOXA; CAFs treated or not with S63845, in presence or not of Mdivi-1

## dynamin-related protein 1 (DRP-1) (from UniProt O00429 1-736)
  binding: binds
